The filed quantity is “Percent Effect” (%). The record does not define 0% and 100%; most values in the screen are far below 50% and negative numbers occur (in some assays of this library far below -100). The compounds are a random part of those screened. Two or more numbers in one place are separate tests of the same structure; such repeats can differ widely.

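Viability assay of Plasmodium falciparum sporozoites; the read-out is not stated. The concentration is filed as 10 mM, unlikely as a test dose, so the dose is not known. Direction is inferred from retests: higher values go with lower viability. Strong results were mostly tested again. About 34,000 compounds were tested under these conditions; 0.84% (about 280) showed 50% or more at least once.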

{"structure": "Cc1ncc(-c2nc3cc(S(=O)(=O)N4CCCC4)ccc3n2C)cn1", "percent effect": -10.51}
{"structure": "O=C(COC1CCCC1)N1CCCC1c1noc(C2CC2)n1", "stereo": "centres unmarked", "percent effect": "-33.38 & -38.7"}
{"structure": "O=C(O)C(F)(F)F.O=C(O)C(F)(F)F.[H][C@@]12COC[C@]1(COc1cccnc1)CN(Cc1cccc(OC)c1)C2", "percent effect": -18.91}
{"structure": "COCc1cccc(CNC(=O)c2c(C)noc2C(C)C)c1", "percent effect": 9.954}
{"structure": "CC(=O)N1CCCC2(CCN(C(=O)c3nccnc3N)CC2)C1", "percent effect": 10.61}
{"structure": "O=C(CN1CCCC(Cn2cncn2)C1)NCCC1=CCCCC1", "stereo": "centres unmarked", "percent effect": -0.7558}
{"structure": "Cc1nc(C)n(CC2CCCN2CC(=O)Nc2ccnn2C(C)C)n1", "stereo": "centres unmarked", "percent effect": -2.852}
{"structure": "COCCN1CCCC2(CCC(=O)N2Cc2cccnc2)C1.O=C(O)C(F)(F)F", "stereo": "centres unmarked", "percent effect": 12.87}
{"structure": "CCCOCC(=O)N1CCCN(Cc2csc(CC)n2)CC1", "percent effect": -3.94}
{"structure": "O=C(Cc1csc(-c2ccco2)n1)N1CCN(c2ccccc2O)CC1", "percent effect": 12.58}
{"structure": "O=C(O)C(F)(F)F.c1cnc(N2CCC3(CC2)CN(CC2CC2)c2ccccc23)nc1", "percent effect": -2.216}
{"structure": "Cc1nc(C(C)(C)NC(=O)Nc2ccccc2)no1", "percent effect": -7.438}
{"structure": "CC(C)c1nn(C)c(Cl)c1CNCCn1cccn1", "percent effect": -2.696}
{"structure": "O=C(COc1ccc(Cl)cc1)N1CCOCC1c1ncon1", "stereo": "centres unmarked", "percent effect": "1.739 & -24.41 & -27.13"}
{"structure": "CCN1CCNC(=O)C12CCN(C(=O)Cc1ccsc1)CC2", "percent effect": 1.969}
{"structure": "Cc1nc(C(Cc2ccsc2)NC(=O)CN2CCOCC2)sc1C", "stereo": "centres unmarked", "percent effect": -1.203}
{"structure": "Cl.O=C(NCCn1nc(C2CCNC2)c2cccnc21)C1CC1", "stereo": "centres unmarked", "percent effect": -1.701}
{"structure": "Cc1ccc(NC(=O)c2ccc(=O)n(CC(=O)NC3CCCC3)n2)cc1", "percent effect": -0.4476}
{"structure": "Cc1ccc(F)c(NS(=O)(=O)c2cc3c(c(C(=O)O)c2)OCCO3)c1", "percent effect": -11.29}
{"structure": "CC1(C)Cc2nc(C(C)(C)C)ncc2C(NC(=O)C2(N)CC2)C1", "stereo": "centres unmarked", "percent effect": 3.939}
{"structure": "CC(C)(C)NC(=O)CN1CCN(C(=O)Nc2ccc(F)cc2F)CC1", "percent effect": -0.4677}
{"structure": "CN(C)Cc1cnc(C2CCN(C(=O)c3cc(F)cc(F)c3)C2)[nH]1", "stereo": "centres unmarked", "percent effect": 4.497}
{"structure": "Cc1cnn(CC2CCCN2C(=O)CCc2c(C)noc2Cl)c1", "stereo": "centres unmarked", "percent effect": -17.25}
{"structure": "O=C(O)C(F)(F)F.O=C(O)C(F)(F)F.[H][C@@]12CN(Cc3ccc(F)cc3)C[C@]1([H])OCCN2c1ccc(C)nn1", "percent effect": 3.448}
{"structure": "CC(NC(=O)NCCCn1cncn1)c1ccncc1", "stereo": "centres unmarked", "percent effect": -0.8043}
{"structure": "O=C(O)C(F)(F)F.[H][C@@]12CCN(CCc3ccccc3)C[C@@]1([H])[C@H](C(=O)NC)CCO2", "percent effect": 14.59}
{"structure": "O=C(c1ccccn1)N1CCC2(CC1)COC(COc1cccnc1)C2", "stereo": "centres unmarked", "percent effect": -14.6}
{"structure": "CC(C)Oc1ccc(C(=O)N2CCC(Nc3cccnn3)CC2)cn1", "percent effect": 11.33}
{"structure": "CN1CCNC(Cc2ccc(-c3cccs3)cc2)C1=O", "stereo": "centres unmarked", "percent effect": -9.956}
{"structure": "CC(OCC(F)(F)F)C(=O)NCc1ccc(-n2cncn2)nc1", "stereo": "centres unmarked", "percent effect": -3.699}
{"structure": "CCCc1cc(C(=O)N(C)Cc2cnc3ccccc3n2)n(C)n1", "percent effect": 18.1}
{"structure": "O=S(=O)(Cc1ccccc1)NCC1CCN(c2cnccn2)CC1", "percent effect": 13.07}
{"structure": "CCn1ccnc1C1CCCN(C(=O)c2sc(C)nc2C)C1", "stereo": "centres unmarked", "percent effect": -6.93}
{"structure": "CCNc1cc2c(nn1)CCN(C(=O)c1cccc(CSC)c1)C2", "percent effect": 8.772}
{"structure": "COc1ncccc1CN1Cc2nccn2CC(CN2CCCC2)C1", "stereo": "centres unmarked", "percent effect": 28.2}
{"structure": "Cc1cc(NCc2cccnc2)n2nc(C)cc2n1", "percent effect": -3.222}
{"structure": "CCN(CC)Cc1ccc(C(=O)N2CCN(CC(C)O)CC2)o1", "stereo": "centres unmarked", "percent effect": 3.425}
{"structure": "COc1ccccc1-c1cc(NC(=O)CC2CCS(=O)(=O)C2)[nH]n1", "stereo": "centres unmarked", "percent effect": 3.02}
{"structure": "[H][C@]12CNC[C@@]1(C(=O)N1CCN(Cc3ncccc3C)CC1)CN(C)C2", "percent effect": -30}
{"structure": "O=C(Cc1csc(-c2ccco2)n1)N1CCN(c2cnccn2)CC1", "percent effect": -14.32}
{"structure": "Cn1cnc(CNC(=O)c2ccccc2-n2cc(CN)cn2)c1", "percent effect": 7.401}
{"structure": "[H][C@@]12CN(Cc3cccnc3)C[C@]1([H])C(=O)NC21CCN(C(=O)C(C)C)CC1", "percent effect": 18.65}
{"structure": "CS(=O)(=O)NC1CCCN(C(=O)NCc2ccoc2)C1", "stereo": "centres unmarked", "percent effect": 4.932}
{"structure": "O=C(NCCNc1ncccn1)N1CCSCC1", "percent effect": -2.24}
{"structure": "Cc1ccnc(N2CCC(C(N)=O)CC2)n1", "percent effect": 8.044}
{"structure": "Cc1cccc(CS(=O)(=O)CC(O)Cn2cccn2)c1", "stereo": "centres unmarked", "percent effect": "-36.12 & -10.53 & -19.17"}
{"structure": "CC(CN1CCOCC1)NC(=O)NCc1cccs1", "stereo": "centres unmarked", "percent effect": -10.78}
{"structure": "CC(=O)c1ccc(-n2c(C)cn(CCC#N)c2=O)cc1", "percent effect": 10.45}
{"structure": "Cc1ccc(CN2CCC3(CCCN3C(=O)C(C)C)CC2)o1", "percent effect": 18.65}
{"structure": "O=C(O)COc1ccc(Cl)cc1CN1CCC2(CCOCC2)CC1", "percent effect": "-25.57 & -17.5"}
{"structure": "O=C(Cn1cccnc1=O)NCCc1ccc2c(c1)OCCO2", "percent effect": 4.412}
{"structure": "CC(C)n1cnnc1C1CCCN(C(=O)COCc2ccccc2)C1", "stereo": "centres unmarked", "percent effect": 0.7083}
{"structure": "Cc1ccc(S(=O)(=O)Nc2ccc(=O)n(C)c2)cc1", "percent effect": 3.207}
{"structure": "O=C(O)C(F)(F)F.[H][C@@]12CCCO[C@]1([H])[C@H](OCc1cccnc1)CN2C(=O)N1CCCC1", "percent effect": -8.029}
{"structure": "CSc1nccc(N2CCC(NCc3ccc4nsnc4c3)CC2)n1", "percent effect": 0.2595}
{"structure": "CC(C)COC1CC2(CCN(C(=O)Cc3ccccn3)CC2)C1.O=C(O)C(F)(F)F", "percent effect": 15.08}
{"structure": "CNS(=O)(=O)c1cccc(CNc2cc(C(F)(F)F)ccn2)c1", "percent effect": -3.2}
{"structure": "CNc1cc(C2CCCN(Cc3ccccc3OCC(=O)O)C2)ccn1", "stereo": "centres unmarked", "percent effect": 5.041}
{"structure": "CC(=O)N1CCOC2(CCCN(C(=O)c3ccc(Cl)cc3)C2)C1", "stereo": "centres unmarked", "percent effect": -4.21}

For reference, 3 entries once more:

Result for COc1ncccc1CN1Cc2nccn2CC(CN2CCCC2)C1 (centres unmarked) was 28.2%.
Result for [H][C@@]12CN(Cc3cccnc3)C[C@]1([H])C(=O)NC21CCN(C(=O)C(C)C)CC1 was 18.65%.
Result for Cc1cc(NCc2cccnc2)n2nc(C)cc2n1 was -3.222%.

Source: ChEMBL document CHEMBL3988442, “University of Dundee, Small-Polar-MMV Screening Library” (2021).